PubChem BioAssay AID1347075 (National Center for Advancing Translational Sciences (NCATS), 2019)
“And” between values parts separate entries of the source, which are not always exact repeats. Identical values can stand only once. Among all 400,000 compounds or so, about 5,500 (1.4%) were called active. The inconclusive results got no clear call from the source; some entries with a clear call stand among them for comparison. Calls come from the whole dose curve; as a rule, active = well fitted cell-killing curve with a large enough effect; inconclusive = small, poorly fitted or top-dose-only effect, or effect the other way; inactive = flat fitted curve, though single readings scatter. A potency beside an inconclusive call is a rough fit, not a confirmed value.

assay: qHTS assay for MDR1-selective chemotherapeutics: Primary screen using the parental adenocarcinoma cell KB-3-1; conditions: KB-3-1 viability, CellTiter-Glo ATP luminescence, 72 h; activity change, negative = cytotoxic: at 46.1 µM (top of the series); note: nearly all actives have a fitted effect of over 60% in size
How it was run: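 Luminescent ATP read-out (CellTiter-Glo) measures survival of drug-naive KB-3-1 cells after 72 h compound exposure at 37 °C. Titration series was screened from lowest to highest concentration, with DMSO vehicle plates as background controls.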
% is set by controls: 0 for no effect and ±100 for the full control effect; potency is the fitted concentration of half-maximal effect.

| SMILES | Potency | activity change, negative = cytotoxic |
| --- | --- | --- |
| COc1ccc(N/N=C/c2c(O)n(-c3ccc(C)c(C)c3)c(=O)[nH]c2=O)cc1 | inconclusive: 16.4 µM [cytotoxic, partial curve] | – |
| C=Cn1ccnc1P(=S)(c1ccccc1)c1nccn1C=C | inconclusive: 14.6 µM [rising, single point] | – |
| O=C1C2CCCN2C(c2cccnc2)N1c1cccc(Cl)c1 (centres undefined) | inconclusive: 23.1 µM [cytotoxic, partial curve] | – |
| CCCCCn1c(=O)c(C(=O)NCc2ccccn2)c(O)c2ccccc21 | inconclusive: 29.1 µM [cytotoxic, single point] | – |
| CC(=O)O/C(=C1\CC2C3CC=C4CC(OC(C)=O)CCC4(C)C3CCC2(C)C1=O)C(F)(F)F (centres undefined) | inconclusive: 20.6 µM [cytotoxic, single point] | – |
| Cc1ccsc1C(=O)C1CCCN(CCO)C1 (centres undefined) | – | inconclusive: 27.2% |
| C/C=C(\C)C(=O)N[C@@H](c1ccccc1)[C@@H](O)C(=O)O[C@H]1C[C@@]2(O)[C@@H](OC(=O)c3ccccc3)C3[C@](C)(C(=O)[C@H](OC(C)=O)C(=C1C)C2(C)C)[C@H](O)C[C@H]1OC[C@@]31OC(C)=O (some centres undefined) | active: 0.0073 µM | – |
| CCCOc1ccc(C2SCC(=O)Nc3c2c(C)nn3-c2cccc(C)c2)cc1OC (centres undefined) | inconclusive: 14.6 µM [cytotoxic, partial curve] | – |
| CC(C)N1CCN(c2ccc(O)cc2)CC1 | inactive | – |
| COc1ccc(CCNCc2sccc2C)cc1OC | inactive | – |
| COc1ccc(C2CC(c3c(O)n(CCc4ccccc4)c(=O)[nH]c3=O)=NN2)cc1OC (centres undefined) | – | inconclusive: 0% |
| CN1CCN(c2ccc3c(c2)S(=O)(=O)c2ccccc2C3=O)CC1 | inactive | – |
| O=c1c2ccccc2nc(-c2ccco2)n1-c1cccnc1 | inconclusive: 32.6 µM [rising, partial curve, poor fit] | – |
| CN(C)c1ccc(C(=O)N/N=C/C23CC[C@@H](O)CC2(O)CC[C@@H]2[C@@H]3CCC3(C)C(C4=CC(=O)OC4)CCC23O)cc1 (some centres undefined) | active: 6.51 µM | – |
| COc1ccccc1N1CCN(Cc2c(F)cccc2Cl)CC1 | inactive | – |
| COC(=O)C1=C(c2ccc(OC(F)(F)F)cc2)C[C@@H]2CC[C@H]1N2C(=O)NCCOc1ccccc1Cl | inconclusive: 29.1 µM [cytotoxic, single point] | – |
| COC(=O)C1=C(c2ccc(F)cc2OCc2ccccc2)C[C@@H]2CC[C@H]1N2C(=O)NCCOc1ccccc1 | inconclusive: 29.1 µM [cytotoxic, single point] | – |
| COc1ccc(CN2Cc3cnnn3-c3ccccc3C2c2ccccc2)cc1 (centres undefined) | inconclusive: 29.1 µM [cytotoxic, single point] | – |
| N=c1c2c(n(Cc3ccc(Cl)cc3Cl)c3c1CCC3)CCCC2 | inconclusive: 3.66 µM [cytotoxic, partial curve, poor fit] | – |
| Cn1cc(C(=O)OCC(=O)NC2CCCCC2)c2ccccc21 | inconclusive: 5.8 µM [rising, full curve] | – |
| COC(=O)c1c(C)n(Cc2ccco2)c2ccc(O)cc12 | inconclusive: 29.1 µM [cytotoxic, single point] | – |
| O=C(Nc1ccc2ccccc2c1)c1nn(C23CC4CC(CC(C4)C2)C3)cc1Br | inactive | – |

| SMILES | Potency | activity change, negative = cytotoxic |
| --- | --- | --- |
| Cc1cccc(Cn2cccc(C(=O)Nc3ccc4c(c3)OCCO4)c2=O)c1 | – | inconclusive: -26.8% |
| COc1ccccc1N1CCNCC1 | inactive | – |
| Cc1ccsc1CNCCc1ccccc1F | – | inconclusive: 30.6% |
| CC1=CC2OC3CC4OC(=O)C=CC=CC(C(C)O)OCC(O)C(C)CC(=O)OCC2(CC1O)C4(C)C31CO1 (centres undefined) | active: 0.0092 µM | – |
| COc1ccc(C(c2nnnn2-c2ccc3c(c2)OCCO3)N2CCC(n3c(=O)[nH]c4ccccc43)CC2)cc1 (centres undefined) | inconclusive: 29.1 µM [cytotoxic, single point] | – |
| CCOC(=O)c1c(C)n(Cc2ccccc2)c2ccc(OCC(O)Cn3nc(C)nc3C)cc12 (centres undefined) | inactive | – |
| CCOC(=O)[C@]12Cc3c(cc(OC)c(OC)c3OC)[C@H]1N(C(C)C)C(=O)c1ccccc12 | active: 13 µM | – |
| O=c1[nH]c(O)c(/C=C2/C=CC(c3cc(Cl)ccc3Cl)=N2)c(=O)[nH]1 | inconclusive: 29.1 µM [cytotoxic, single point] | – |
| COC(=O)NC(=S)Nc1ccccc1NC(=S)NC(=O)OC | inconclusive: 6.51 µM [cytotoxic, full curve, poor fit] | – |
| CC(C)c1oc(=O)cc2c1[C@@H](O)[C@H]1OC(=O)[C@@]3(C)CC[C@@H](O)[C@@]2(C)C13 (some centres undefined) | active: 7.31 µM | – |
| COC(=O)C1=C(c2cccc(OCc3ccccc3)c2)C[C@@H]2CC[C@H]1N2C(=O)NCCOc1ccc(OC)cc1 | inconclusive: 29.1 µM [cytotoxic, single point] | – |
| C[N+]1=C(/C=C/Nc2ccccc2)C(C)(C)c2ccccc21 | inconclusive: 29.1 µM [cytotoxic, single point] | – |
| O=c1[nH]c2ccccc2n1C1CCN(C(c2ccccc2)c2nnnn2Cc2ccccc2)CC1 (centres undefined) | inconclusive: 29.1 µM [cytotoxic, single point] | – |
| COc1ccc(C(c2ccc(OC)cc2)C(Cl)(Cl)Cl)cc1 | – | inconclusive: -0.25% |
| Cc1cccc(C)c1-n1nnnc1C(c1ccccc1)N1CCC2(CC1)C(=O)NCN2c1ccccc1 (centres undefined) | inconclusive: 29.1 µM [cytotoxic, single point] | – |
| C[C@@H]1O[C@@H](O[C@@H]2C=C3CC[C@@H]4C(CC[C@]5(C)[C@@H](c6ccc(=O)oc6)CC[C@]45O)[C@@]3(C)CC2)[C@H](O)[C@H](O)[C@H]1O (some centres undefined) | inconclusive: 0.0052 µM [cytotoxic, full curve, poor fit] | – |
| O=C(c1cc(C(=O)NCc2ccccc2)c(=O)n(Cc2ccccc2)c1)c1cc(Cl)ccc1O | inconclusive: 23.1 µM [cytotoxic, single point] | – |
| OC(Cn1c2ccccc2c2ccccc21)C[n+]1ccccc1 (centres undefined) | inconclusive: 18.4 µM [cytotoxic, single point] | – |
| O=C1NCN(c2ccccc2)C12CCN(C(c1cc3ccccc3o1)c1nnnn1Cc1ccccc1)CC2 (centres undefined) | inconclusive: 29.1 µM [cytotoxic, single point] | – |
| COc1ccc(/C=N/N=C(/N)N[N+](=O)[O-])c(OC)c1 | active: 1.46 µM | – |
| CC(=O)O[C@H]1C(=O)[C@@]2(C)C([C@H](OC(=O)c3ccccc3)[C@]3(O)C[C@H](O)C(C)=C1C3(C)C)[C@]1(OC(C)=O)CO[C@@H]1C[C@H]2O (some centres undefined) | inconclusive: 18.4 µM [cytotoxic, single point] | – |
| COc1nc2ccccc2nc1N1CCN(C)CC1 | inactive | – |

| SMILES | Potency | activity change, negative = cytotoxic |
| --- | --- | --- |
| COc1ccc(C(=O)C2CCCN(Cc3cnc(C)s3)C2)cc1OC (centres undefined) | inconclusive: 20.6 µM [rising, partial curve, poor fit] | – |
| Cc1ccccc1-n1c(O)c(/C=N/NC(=O)c2ccncc2)c(=O)[nH]c1=O | inactive | – |
| CN1CSC(=S)N(C)C1 | inconclusive: 29.1 µM [cytotoxic, single point] | – |
| CN(C)c1ccc(/C=C/C=C2/C(=O)NC(=O)N(c3ccccc3)C2=O)cc1 | inactive | – |
| CCOC(=O)[C@]12Cc3cc4c(cc3[C@H]1N(Cc1ccccc1)C(=O)c1ccccc12)OCO4 | inconclusive: 13 µM [cytotoxic, partial curve, poor fit] and inconclusive: 23.1 µM [cytotoxic, single point] | – |
| CCCCn1c(O)c(C(=O)/C=C/c2ccc3c(c2)OCO3)c(=O)[nH]c1=O | inconclusive: 23.1 µM [cytotoxic, single point] | – |
| COc1ccc(-n2nnnc2C(c2cccc3ccccc23)N2CCC3(CC2)C(=O)NCN3c2ccccc2)cc1 (centres undefined) | inconclusive: 25.9 µM [cytotoxic, single point] | – |
| COC(=O)C12OCC34C(CC5C(C)=C(O)C(=O)CC5(C)C3C(O)C1O)OC(=O)C(OC(=O)/C=C(\C)C(C)C)C24 (centres undefined) | active: 0.184 µM | – |
| Cc1cc(OCC(=O)O)c2c3c(c(=O)oc2c1)CCCC3 | inactive | – |
| Cc1ncc(CN2CCCC(C(=O)c3ccc(C(C)(C)C)cc3)C2)s1 (centres undefined) | inconclusive: 13 µM [cytotoxic, partial curve, poor fit] | – |
| COc1cc(-n2c(=S)[nH]c3ccc(C)cc3c2=O)c(Cl)cc1Cl | inconclusive: 18.4 µM [cytotoxic, single point] | – |
| COc1ccc(-c2cc(-c3ccccc3)[n+](C)c(-c3ccccc3)c2)cc1 | active: 3.26 µM | – |
| CCCCC1C(=O)NC(=S)N(C)C1=O (centres undefined) | inactive | – |
| CSc1ncc(Br)c(N2CC2)n1 | inconclusive: 29.1 µM [rising, single point] | – |
| COC(=O)C1=C(c2cc3ccccc3o2)C[C@@H]2CC[C@H]1N2C(=O)NCc1ccc(C(F)(F)F)cc1 | inconclusive: 18.4 µM [cytotoxic, single point] | – |
| COC(=O)C(O)(c1ccc(N(C)C)cc1)C(F)(F)F (centres undefined) | inactive | – |
| COc1ccc(-n2nnnc2C(CCc2ccccc2)N2CCC(n3c(=O)[nH]c4ccccc43)CC2)cc1 (centres undefined) | inconclusive: 29.1 µM [cytotoxic, single point] | – |
| Cc1cc(OCC(=O)N2CCN(CCc3ccncc3)CC2)cc(C)c1Cl | inactive | – |
| COc1ccc(-c2cc(=NCCCCCC(=O)O)c3cc(C)ccc3o2)cc1 | inconclusive: 13 µM [rising, partial curve, poor fit] | – |
| CCOC(=O)[C@]12Cc3ccccc3[C@H]1N(Cc1ccccc1)C(=O)c1cc(OC)ccc12 | inconclusive: 29.1 µM [cytotoxic, single point] | – |
